# Measured values from article PMC5996148.
# The other results are listed elsewhere or left out. For some of these results: Construct or isoform of the protein are uncertain.
# How the values were obtained:
# Assay in all cases: protein microarray (ProtoArray v5.0), streptavidin-Alexa Fluor 647
# Conditions in all cases: 3'-biotin; 20 mM Tris (pH 7.5), 5 mM MgCl2, 100 mM KCl, 0.1% Tween-20, A/T-rich and random oligonucleotide blockers; temperature not stated; high values mean tight binding
# ABHD14B (human) = test system: ABHD14B (human)
# ABHD4 (human) = test system: ABHD4 (human)
# ABHD5 (human) = test system: ABHD5 (human)
# ABHD6 (human) = test system: ABHD6 (human)
# ACAD9 (human) = test system: ACAD9 (human)
# ACADS (human) = test system: ACADS (human)
# ACAN (human) = test system: ACAN (human)
# ACBD6 = biological target: T1, ACBD6 (UniProt Q9BR61)
# T1 sequence: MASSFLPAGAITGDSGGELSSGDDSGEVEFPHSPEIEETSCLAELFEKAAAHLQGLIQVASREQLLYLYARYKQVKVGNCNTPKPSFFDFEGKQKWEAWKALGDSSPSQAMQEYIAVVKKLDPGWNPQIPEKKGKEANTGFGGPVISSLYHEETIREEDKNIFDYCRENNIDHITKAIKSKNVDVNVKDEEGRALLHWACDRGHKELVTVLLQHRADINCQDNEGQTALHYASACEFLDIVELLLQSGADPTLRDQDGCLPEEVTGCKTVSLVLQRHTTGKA
# ACBD7 (human) = test system: ACBD7 (human)
# ACCN2 (human) = test system: ACCN2 (human)
sequence,measurement,setting,value
GGGAGGCTGAGGCAGG [G4-1 biotinylated (PQS2)],binding signal,ABHD14B (human),-0.287 z-score
same,binding signal,ABHD4 (human),-0.321 z-score
same,binding signal,ABHD5 (human),-0.296 z-score
same,binding signal,ABHD6 (human),-0.313 z-score
same,binding signal,ACAD9 (human),-0.297 z-score
same,binding signal,ACADS (human),-0.258 z-score
same,binding signal,ACAN (human),-0.312 z-score
same,binding signal,ACBD6,-0.341 z-score
same,binding signal,ACBD7 (human),-0.319 z-score
same,binding signal,ACCN2 (human),-0.309 z-score
